Data source: PubChem BioAssay AID1259308 (NCATS, 2017)

Aim: 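Genes whose loss raises luciferase production in HEK293 cells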 (primary screen)
Cells: human HEK293 embryonic kidney cells stably expressing firefly luciferase (HEK-CMV-Luc2-Hygro)
Reagent: single siRNA against human genes, 0.8 pmol siRNA per well
Duration: 72 h
Measured: 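Luciferase light (ONE-Glo) measured on one replicate plate set and viability (CellTiter-Glo) on the other, scaled to a negative control siRNA, with robust z-scores and luciferase per cell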
Reading the numbers: total luciferase, z-score and total luciferase, % of control: higher = more reporter protein produced
Hit rule: 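An siRNA counts as active if its total luciferase robust z-score exceeds 3; genes with two or more such siRNAs out of three were retested with fresh siRNAs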
Calls: active = raised luciferase; inactive = no rise
In all, the deposit lists about 59,000 reagents; below is a part drawn at random. In the full data, about 1,510 (2.6%) were called active. 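Calls use total luciferase alone and ignore viability, so some active siRNAs may act by altering cell number.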 Further read-outs or replicates are left out here. Reagent sequences are not shown.

TMC7 (transmembrane channel like 7) [SID160749747] showed total luciferase, z-score -0.454; total luciferase, % of control 72.8; inactive. TMC7 (transmembrane channel like 7) [SID160749748] gave total luciferase, z-score -0.486; total luciferase, % of control 72.2; inactive. After knock-down of TMC7 (transmembrane channel like 7) [SID160749749] the results were total luciferase, z-score 2.23; total luciferase, % of control 126; inactive. For SNX19 (sorting nexin 19) [SID160766914] the deposit lists total luciferase, z-score 1.02; total luciferase, % of control 102; inactive. Depletion of SNX19 (sorting nexin 19) [SID160766915] gave: total luciferase, z-score 0.776; total luciferase, % of control 97.3; inactive. Knock-down of SNX19 (sorting nexin 19) [SID160766916] resulted in: total luciferase, z-score 2.01; total luciferase, % of control 122; inactive.

With knock-down of SAXO2 (stabilizer of axonemal microtubules 2) [SID160763026], the record shows total luciferase, z-score 0.699; total luciferase, % of control 95.8; inactive. After knock-down of SAXO2 (stabilizer of axonemal microtubules 2) [SID160763027], the record shows total luciferase, z-score 1; total luciferase, % of control 102; inactive. SAXO2 (stabilizer of axonemal microtubules 2) [SID160763028] gave total luciferase, z-score -0.193; total luciferase, % of control 78; inactive. OR5P2 (olfactory receptor family 5 subfamily P member 2) [SID160755769] gave total luciferase, z-score -0.333; total luciferase, % of control 75.3; inactive. Depletion of OR5P2 (olfactory receptor family 5 subfamily P member 2) [SID160755770] resulted in: total luciferase, z-score -0.213; total luciferase, % of control 77.6; inactive. After knock-down of OR5P2 (olfactory receptor family 5 subfamily P member 2) [SID160755771] the results were total luciferase, z-score 0.673; total luciferase, % of control 95.3; inactive.

Against G6PD (glucose-6-phosphate dehydrogenase) [SID160768104], the values are total luciferase, z-score -0.296; total luciferase, % of control 76; inactive. G6PD (glucose-6-phosphate dehydrogenase) [SID160768113] showed total luciferase, z-score -1.31; total luciferase, % of control 55.7; inactive. G6PD (glucose-6-phosphate dehydrogenase) [SID160768122] showed total luciferase, z-score -0.117; total luciferase, % of control 79.6; inactive. After knock-down of TRUB2 (TruB pseudouridine synthase family member 2) [SID160738222], the record shows total luciferase, z-score -0.354; total luciferase, % of control 74.8; inactive. Depletion of TRUB2 (TruB pseudouridine synthase family member 2) [SID160738223] came out at: total luciferase, z-score 1.04; total luciferase, % of control 103; inactive. For TRUB2 (TruB pseudouridine synthase family member 2) [SID160738224], the entry reads total luciferase, z-score 0.311; total luciferase, % of control 88.1; inactive.

Against PPP1R8 (protein phosphatase 1 regulatory subunit 8) [SID160714780] the deposit lists total luciferase, z-score -0.116; total luciferase, % of control 79.6; inactive. For PPP1R8 (protein phosphatase 1 regulatory subunit 8) [SID160714781], the entry reads total luciferase, z-score 0.00706; total luciferase, % of control 82; inactive. PPP1R8 (protein phosphatase 1 regulatory subunit 8) [SID160714782] showed total luciferase, z-score 0.818; total luciferase, % of control 98.2; inactive. CNOT7 (CCR4-NOT transcription complex subunit 7) [SID160739223] scored total luciferase, z-score 0.828; total luciferase, % of control 98.4; inactive. Against CNOT7 (CCR4-NOT transcription complex subunit 7) [SID160739224], the entry reads total luciferase, z-score 0.564; total luciferase, % of control 93.1; inactive. Silencing of CNOT7 (CCR4-NOT transcription complex subunit 7) [SID160739225] came out at: total luciferase, z-score 0.362; total luciferase, % of control 89.1; inactive.

Knock-down of MAGEA9 (MAGE family member A9) [SID160776897] came out at: total luciferase, z-score 1.18; total luciferase, % of control 105; inactive. MAGEA9 (MAGE family member A9) [SID160776898] scored total luciferase, z-score -0.425; total luciferase, % of control 73.4; inactive. For MAGEA9 (MAGE family member A9) [SID160776899] the deposit lists total luciferase, z-score 2.87; total luciferase, % of control 139; inactive. For SLC43A3 [SID160731030], the entry reads total luciferase, z-score 1.49; total luciferase, % of control 111; inactive. After knock-down of SLC43A3 [SID160738967] the results were total luciferase, z-score 0.242; total luciferase, % of control 86.7; inactive. For SLC43A3 [SID160738968] the deposit lists total luciferase, z-score -0.803; total luciferase, % of control 65.9; inactive.

Silencing of LOC730338 [SID160773734] came out at: total luciferase, z-score 0.2; total luciferase, % of control 85.9; inactive. For LOC730338 [SID160773735], the values are total luciferase, z-score -0.386; total luciferase, % of control 74.2; inactive. Knock-down of LOC730338 [SID160773738] gave: total luciferase, z-score -1.81; total luciferase, % of control 45.8; inactive.

4 entries from above, set out differently:
gene | PubChem SID | total luciferase, z-score | total luciferase, % of control | Call
CNOT7 (CCR4-NOT transcription complex subunit 7) | SID160739223 | 0.828 | 98.4 | inactive
CNOT7 (CCR4-NOT transcription complex subunit 7) | SID160739224 | 0.564 | 93.1 | inactive
CNOT7 (CCR4-NOT transcription complex subunit 7) | SID160739225 | 0.362 | 89.1 | inactive
MAGEA9 (MAGE family member A9) | SID160776897 | 1.18 | 105 | inactive
